From the supplement of paper PMC10849652
The other results are listed elsewhere or left out.

Amino acid sequences for entries named in this document (tags omitted). A change or cut given only in a name is not applied to a line headed by its entry.
UniProt Q8NCW6: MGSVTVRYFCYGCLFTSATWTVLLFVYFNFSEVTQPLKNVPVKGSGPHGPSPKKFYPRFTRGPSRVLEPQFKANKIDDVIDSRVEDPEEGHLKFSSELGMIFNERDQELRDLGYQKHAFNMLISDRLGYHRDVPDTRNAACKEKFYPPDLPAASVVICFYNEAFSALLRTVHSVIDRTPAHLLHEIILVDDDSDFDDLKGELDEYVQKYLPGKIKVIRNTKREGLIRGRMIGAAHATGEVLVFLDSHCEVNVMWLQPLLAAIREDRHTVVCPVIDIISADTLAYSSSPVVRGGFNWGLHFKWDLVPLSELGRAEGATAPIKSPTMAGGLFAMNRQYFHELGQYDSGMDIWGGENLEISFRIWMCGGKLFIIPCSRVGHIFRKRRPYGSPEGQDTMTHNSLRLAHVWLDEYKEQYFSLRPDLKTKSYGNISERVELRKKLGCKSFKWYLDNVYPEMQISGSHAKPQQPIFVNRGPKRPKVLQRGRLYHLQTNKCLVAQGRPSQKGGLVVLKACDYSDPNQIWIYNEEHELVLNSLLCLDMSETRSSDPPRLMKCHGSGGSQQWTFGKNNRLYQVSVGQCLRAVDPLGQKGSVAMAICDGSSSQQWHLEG
UniProt Q8WXD5: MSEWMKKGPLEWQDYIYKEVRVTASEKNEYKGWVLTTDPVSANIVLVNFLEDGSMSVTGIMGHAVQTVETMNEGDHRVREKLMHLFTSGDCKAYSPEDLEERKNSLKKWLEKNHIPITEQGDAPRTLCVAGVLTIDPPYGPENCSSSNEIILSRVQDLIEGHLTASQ
UniProt Q8N4A0: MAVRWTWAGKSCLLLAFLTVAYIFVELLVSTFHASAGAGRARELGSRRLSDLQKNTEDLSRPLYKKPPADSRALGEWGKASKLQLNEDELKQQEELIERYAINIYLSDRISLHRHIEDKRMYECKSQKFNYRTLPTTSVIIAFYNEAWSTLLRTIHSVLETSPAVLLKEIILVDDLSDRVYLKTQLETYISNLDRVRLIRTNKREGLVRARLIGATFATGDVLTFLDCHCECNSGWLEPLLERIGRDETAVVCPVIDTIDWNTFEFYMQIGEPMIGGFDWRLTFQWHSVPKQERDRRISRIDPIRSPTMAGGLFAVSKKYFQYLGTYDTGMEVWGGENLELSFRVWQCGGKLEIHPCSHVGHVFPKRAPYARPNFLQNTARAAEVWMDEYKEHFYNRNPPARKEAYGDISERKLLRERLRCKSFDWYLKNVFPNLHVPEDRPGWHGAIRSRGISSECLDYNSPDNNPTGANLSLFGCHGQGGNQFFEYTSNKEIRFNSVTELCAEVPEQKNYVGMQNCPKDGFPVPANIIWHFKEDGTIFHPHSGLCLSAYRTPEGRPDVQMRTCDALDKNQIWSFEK
UniProt P85037: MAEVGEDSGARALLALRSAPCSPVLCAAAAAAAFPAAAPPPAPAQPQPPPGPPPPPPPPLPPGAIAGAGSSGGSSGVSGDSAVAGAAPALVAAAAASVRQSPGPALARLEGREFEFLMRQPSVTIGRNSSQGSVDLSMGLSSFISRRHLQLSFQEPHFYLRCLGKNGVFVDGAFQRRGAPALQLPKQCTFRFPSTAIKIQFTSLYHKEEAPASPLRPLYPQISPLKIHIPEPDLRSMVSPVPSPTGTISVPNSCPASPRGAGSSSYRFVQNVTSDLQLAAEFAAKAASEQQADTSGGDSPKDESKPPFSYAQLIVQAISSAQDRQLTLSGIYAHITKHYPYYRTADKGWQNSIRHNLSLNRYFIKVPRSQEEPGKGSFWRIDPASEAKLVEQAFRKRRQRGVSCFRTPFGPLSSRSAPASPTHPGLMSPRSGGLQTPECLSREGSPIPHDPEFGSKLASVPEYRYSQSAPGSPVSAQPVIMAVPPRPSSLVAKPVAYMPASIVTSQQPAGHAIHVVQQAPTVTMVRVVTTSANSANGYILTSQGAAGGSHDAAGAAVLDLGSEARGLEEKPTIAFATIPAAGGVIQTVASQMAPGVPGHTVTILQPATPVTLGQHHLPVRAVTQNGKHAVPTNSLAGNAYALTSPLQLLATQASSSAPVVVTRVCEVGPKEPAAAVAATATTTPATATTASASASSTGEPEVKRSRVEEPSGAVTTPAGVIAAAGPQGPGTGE
UniProt P04066: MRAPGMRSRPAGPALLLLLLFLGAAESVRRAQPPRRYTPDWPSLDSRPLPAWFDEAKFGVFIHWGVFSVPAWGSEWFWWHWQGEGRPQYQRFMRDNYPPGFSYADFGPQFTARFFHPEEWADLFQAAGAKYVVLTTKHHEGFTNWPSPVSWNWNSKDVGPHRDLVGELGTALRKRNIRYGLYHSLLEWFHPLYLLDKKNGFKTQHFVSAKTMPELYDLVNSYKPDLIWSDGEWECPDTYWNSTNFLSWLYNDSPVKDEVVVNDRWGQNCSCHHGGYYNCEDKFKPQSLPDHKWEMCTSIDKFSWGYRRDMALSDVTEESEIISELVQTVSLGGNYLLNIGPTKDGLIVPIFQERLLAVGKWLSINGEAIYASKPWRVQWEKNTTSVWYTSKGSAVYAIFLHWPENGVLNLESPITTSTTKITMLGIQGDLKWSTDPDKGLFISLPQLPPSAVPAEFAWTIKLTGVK
UniProt P23434: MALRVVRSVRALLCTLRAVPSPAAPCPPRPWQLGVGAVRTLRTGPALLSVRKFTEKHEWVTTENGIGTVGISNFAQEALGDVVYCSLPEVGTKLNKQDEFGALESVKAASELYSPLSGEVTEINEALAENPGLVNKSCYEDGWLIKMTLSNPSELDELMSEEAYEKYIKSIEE
UniProt P48507: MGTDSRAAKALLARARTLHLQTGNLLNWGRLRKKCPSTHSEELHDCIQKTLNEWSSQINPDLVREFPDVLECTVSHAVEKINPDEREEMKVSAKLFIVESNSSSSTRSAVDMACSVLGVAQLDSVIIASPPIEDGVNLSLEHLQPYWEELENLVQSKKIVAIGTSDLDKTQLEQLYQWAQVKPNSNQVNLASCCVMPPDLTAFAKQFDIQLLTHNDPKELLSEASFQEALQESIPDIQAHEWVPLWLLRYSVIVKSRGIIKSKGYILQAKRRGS
UniProt P51570: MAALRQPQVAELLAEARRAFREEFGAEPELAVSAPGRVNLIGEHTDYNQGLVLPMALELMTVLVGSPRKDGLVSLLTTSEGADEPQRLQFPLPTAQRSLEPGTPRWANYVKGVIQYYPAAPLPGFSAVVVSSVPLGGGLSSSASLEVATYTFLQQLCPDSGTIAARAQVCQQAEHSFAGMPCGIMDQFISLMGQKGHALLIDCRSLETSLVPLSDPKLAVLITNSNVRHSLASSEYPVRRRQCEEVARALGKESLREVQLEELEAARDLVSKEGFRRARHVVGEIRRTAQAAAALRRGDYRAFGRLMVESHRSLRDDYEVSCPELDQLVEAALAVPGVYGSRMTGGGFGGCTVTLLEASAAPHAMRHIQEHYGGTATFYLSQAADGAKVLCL
UniProt Q92947: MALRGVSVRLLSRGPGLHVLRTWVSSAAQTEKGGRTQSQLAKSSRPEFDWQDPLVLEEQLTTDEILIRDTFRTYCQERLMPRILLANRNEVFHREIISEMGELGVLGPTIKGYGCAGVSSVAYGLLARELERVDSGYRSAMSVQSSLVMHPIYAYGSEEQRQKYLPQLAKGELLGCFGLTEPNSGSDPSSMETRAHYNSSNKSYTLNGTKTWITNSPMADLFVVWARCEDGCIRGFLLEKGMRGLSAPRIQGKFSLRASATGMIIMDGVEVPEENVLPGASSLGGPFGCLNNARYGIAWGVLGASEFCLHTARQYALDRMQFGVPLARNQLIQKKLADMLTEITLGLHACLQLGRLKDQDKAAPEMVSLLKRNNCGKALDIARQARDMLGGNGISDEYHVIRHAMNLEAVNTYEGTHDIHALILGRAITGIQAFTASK
UniProt Q8N9F7: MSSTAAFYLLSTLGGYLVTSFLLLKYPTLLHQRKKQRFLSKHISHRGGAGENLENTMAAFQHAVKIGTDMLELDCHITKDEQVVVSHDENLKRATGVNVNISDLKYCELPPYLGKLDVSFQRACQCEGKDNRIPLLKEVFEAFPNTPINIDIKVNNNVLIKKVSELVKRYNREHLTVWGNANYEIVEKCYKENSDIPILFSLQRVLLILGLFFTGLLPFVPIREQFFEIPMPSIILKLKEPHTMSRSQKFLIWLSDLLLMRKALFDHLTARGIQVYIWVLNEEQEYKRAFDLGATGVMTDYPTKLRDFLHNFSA
UniProt O14893: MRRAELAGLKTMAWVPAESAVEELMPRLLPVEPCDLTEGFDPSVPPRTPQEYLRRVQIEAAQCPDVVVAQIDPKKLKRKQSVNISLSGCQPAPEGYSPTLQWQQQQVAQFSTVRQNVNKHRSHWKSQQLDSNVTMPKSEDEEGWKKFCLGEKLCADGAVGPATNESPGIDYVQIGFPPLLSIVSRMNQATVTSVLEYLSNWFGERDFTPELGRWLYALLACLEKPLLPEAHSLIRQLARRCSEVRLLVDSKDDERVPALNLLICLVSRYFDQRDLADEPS
UniProt Q06546: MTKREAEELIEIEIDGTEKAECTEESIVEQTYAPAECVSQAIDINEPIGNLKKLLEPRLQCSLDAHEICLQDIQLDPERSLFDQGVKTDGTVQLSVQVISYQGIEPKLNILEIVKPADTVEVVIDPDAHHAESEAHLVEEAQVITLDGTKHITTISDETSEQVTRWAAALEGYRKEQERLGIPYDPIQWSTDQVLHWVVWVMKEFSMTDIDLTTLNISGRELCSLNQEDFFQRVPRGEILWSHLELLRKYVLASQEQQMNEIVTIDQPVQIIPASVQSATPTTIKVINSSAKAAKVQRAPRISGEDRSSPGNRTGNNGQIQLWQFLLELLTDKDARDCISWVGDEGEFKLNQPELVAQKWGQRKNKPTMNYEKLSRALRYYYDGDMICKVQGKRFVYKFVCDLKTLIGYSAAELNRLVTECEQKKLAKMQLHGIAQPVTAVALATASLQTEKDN
UniProt Q8N2G8: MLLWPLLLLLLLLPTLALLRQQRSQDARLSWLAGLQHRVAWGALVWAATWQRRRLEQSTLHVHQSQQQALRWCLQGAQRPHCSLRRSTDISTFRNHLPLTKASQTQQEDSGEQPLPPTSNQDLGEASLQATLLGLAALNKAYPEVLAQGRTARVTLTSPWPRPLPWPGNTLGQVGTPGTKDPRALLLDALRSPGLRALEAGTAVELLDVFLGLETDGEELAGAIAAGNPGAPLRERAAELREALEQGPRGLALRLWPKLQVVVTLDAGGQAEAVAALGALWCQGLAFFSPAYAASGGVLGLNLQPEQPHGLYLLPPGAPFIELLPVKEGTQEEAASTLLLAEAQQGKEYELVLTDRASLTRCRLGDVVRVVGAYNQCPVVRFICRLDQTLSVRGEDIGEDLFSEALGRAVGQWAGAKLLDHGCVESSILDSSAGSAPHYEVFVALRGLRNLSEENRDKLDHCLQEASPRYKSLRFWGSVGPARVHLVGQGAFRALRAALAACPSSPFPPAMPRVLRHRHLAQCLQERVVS
UniProt Q9UJ14: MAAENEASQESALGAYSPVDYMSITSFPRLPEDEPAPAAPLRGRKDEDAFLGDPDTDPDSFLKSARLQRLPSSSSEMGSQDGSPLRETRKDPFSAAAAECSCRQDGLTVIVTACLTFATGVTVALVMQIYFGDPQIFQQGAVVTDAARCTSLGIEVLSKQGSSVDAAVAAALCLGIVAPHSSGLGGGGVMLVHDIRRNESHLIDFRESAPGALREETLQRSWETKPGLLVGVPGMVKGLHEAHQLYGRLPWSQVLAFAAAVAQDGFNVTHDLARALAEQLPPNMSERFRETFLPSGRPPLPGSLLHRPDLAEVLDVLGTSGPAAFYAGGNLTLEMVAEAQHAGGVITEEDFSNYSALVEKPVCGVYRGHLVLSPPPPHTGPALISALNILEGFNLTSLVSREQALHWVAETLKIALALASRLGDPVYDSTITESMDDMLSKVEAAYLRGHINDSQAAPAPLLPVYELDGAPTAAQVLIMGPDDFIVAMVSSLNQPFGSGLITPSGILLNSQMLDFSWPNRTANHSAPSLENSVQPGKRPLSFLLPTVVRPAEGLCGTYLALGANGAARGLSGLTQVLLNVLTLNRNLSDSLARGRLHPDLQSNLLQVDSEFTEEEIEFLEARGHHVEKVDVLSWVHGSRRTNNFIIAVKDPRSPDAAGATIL

Each target was assayed with Cc1ccc(-n2nc(C(C)(C)C)cc2NC(=O)Nc2ccc(OCCN3CCOCC3)c3ccccc23)cc1 [doramapimod] (assay: log2 fold change, soluble protein after heating vs DMSO (PISA); higher = thermal stabilisation; K562 cells, 10 uM, 30 min; active = over 0.2 and 3.5 SD of the protein, either way, in both replicates (recomputed)).
In short: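 For each measurement, 10 μM compound was applied for 30 min to K562 cells at 2×10^6 cells/mL. Aliquots were heated for 3 min across 48°C-58°C, pooled, and extracted in PBS with 0.5% NP-40 at 4°C; the supernatant after 21,000xg for 90 min was soluble protein. This was quantified by TMTpro 16plex LC-MS/MS with channel sums equalised, and thermal stability was reported relative to control samples from duplicates, on a log2 fold-change scale.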

Row | Target | log2 fold change
1 | GALNT11 (UniProt Q8NCW6) | inactive: 0.045
2 | GEMIN6 (UniProt Q8WXD5) | inactive: -0.016
3 | GALNT10 (UniProt Q86SR1) | inactive: 0.054
4 | FOSL1 (UniProt P15407) | inactive: 0.106
5 | GALNT4 (UniProt Q8N4A0) | inactive: 0.013
6 | FNTB (UniProt P49356) | inactive: -0.012
7 | FPGS (UniProt Q05932) | inactive: -0.004
8 | GAB2 (UniProt Q9UQC2) | inactive: 0.118
9 | FOXK1 (UniProt P85037) | inactive: -0.126
10 | GAPVD1 isoform 6 (UniProt Q14C86) | inactive: 0.038
11 | FUCA1 (UniProt P04066) | inactive: 0.021
12 | GCSH (UniProt P23434) | inactive: 0.032
13 | GCLM (UniProt P48507) | inactive: -0.072
14 | GALK1 isoform 2 (UniProt P51570) | inactive: 0.012
15 | GCDH (UniProt Q92947) | inactive: -0.012
16 | GDPD1 (UniProt Q8N9F7) | inactive: 0.078
17 | GEMIN2 (UniProt O14893) | inactive: 0.029
18 | GABPA (UniProt Q06546) | inactive: -0.018
19 | GARS1 (UniProt H7C443) | inactive: -0.086
20 | GATD1 (UniProt Q8NB37) | inactive: 0.163
21 | GHDC (UniProt Q8N2G8) | inactive: -0.041
22 | GGT7 (UniProt Q9UJ14) | inactive: 0.023
23 | GALC (UniProt P54803) | inactive: -0.01

Some of the entries above in another layout:

| Row | Target | log2 fold change |
| --- | --- | --- |
| 22 | GGT7 (UniProt Q9UJ14) | inactive: 0.023 |
| 23 | GALC (UniProt P54803) | inactive: -0.01 |
